The supplement of paper PMC8728848
This is one part of the list.

Experiments:
Experiment in all cases: glycan array binding signal (z-score within array); higher = stronger binding
Details in all cases: glycan notation: IUPAC condensed, linker removed
[1] = target: GalNAc(b1-6)GalNAc
How it was run: (§1)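 The Consortium for Functional Glycomics database supplied 3228 glycan arrays, of which those lacking an available protein sequence were dropped. The binding signal, a within-array Z-score, was averaged across arrays of the same protein sequence and across linkers. Negative scores can be read as non-binding.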

[2] = target: Glc(a1-4)Glc
How it was run: as §1

[3] = target: Glc(a1-4)Glc(a1-4)Glc(a1-4)Glc
How it was run: as §1

[4] = target: Glc(a1-6)Glc(a1-6)Glc
How it was run: as §1

[5] = target: Glc(a1-6)Glc(a1-6)Glc(a1-6)Glc
How it was run: as §1

[6] = target: Glc(b1-4)Glc
How it was run: as §1

[7] = target: Glc(b1-6)Glc
How it was run: as §1

[8] = target: GlcA(b1-3)Gal
How it was run: as §1

[9] = target: GlcA(b1-3)GlcNAc
How it was run: as §1

[10] = target: GlcA(b1-6)Gal
How it was run: as §1

[11] = target: GlcNAc(a1-3)Gal(b1-4)GlcNAc
How it was run: as §1

[12] = target: GlcNAc(a1-4)Gal(b1-3)GlcNAc
How it was run: as §1

[13] = target: GlcNAc(a1-4)Gal(b1-4)GalNAc
How it was run: as §1

[14] = target: GlcNAc(a1-4)Gal(b1-4)GlcNAc
How it was run: as §1

[15] = target: GlcNAc(a1-4)Gal(b1-4)GlcNAc(b1-3)Gal(b1-4)Glc
How it was run: as §1

[16] = target: GlcNAc(a1-4)Gal(b1-4)GlcNAc(b1-3)Gal(b1-4)GlcNAc
How it was run: as §1

[17] = target: GlcNAc(a1-4)Gal(b1-4)GlcNAc(b1-3)Gal(b1-4)GlcNAc(b1-3)Gal(b1-4)GlcNAc
How it was run: as §1

[18] = target: GlcNAc(a1-4)Gal(b1-4)GlcNAc(b1-3)Gal(b1-4)[Fuc(a1-3)]GlcNAc(b1-3)Gal(b1-4)[Fuc(a1-3)]GlcNAc
How it was run: as §1

[19] = target: GlcNAc(a1-6)Gal(b1-4)GlcNAc
How it was run: as §1

[20] = target: GlcNAc(b1-2)Gal(b1-3)GalNAc
How it was run: as §1

[21] = target: GlcNAc(b1-2)Man(a1-3)[GlcNAc(b1-2)Man(a1-6)]Man(b1-4)GlcNAc(b1-4)GlcNAc
How it was run: as §1

[22] = target: GlcNAc(b1-2)Man(a1-3)[GlcNAc(b1-2)Man(a1-6)]Man(b1-4)GlcNAc(b1-4)[Fuc(a1-6)]GlcNAc
How it was run: as §1

[23] = target: GlcNAc(b1-2)Man(a1-3)[GlcNAc(b1-4)][GlcNAc(b1-2)Man(a1-6)]Man(b1-4)GlcNAc(b1-4)GlcNAc
How it was run: as §1

[24] = target: GlcNAc(b1-2)[GlcNAc(b1-4)]Man(a1-3)[GlcNAc(b1-2)Man(a1-6)]Man(b1-4)GlcNAc(b1-4)GlcNAc
How it was run: as §1

[25] = target: GlcNAc(b1-2)[GlcNAc(b1-4)]Man(a1-3)[GlcNAc(b1-4)][GlcNAc(b1-2)Man(a1-6)]Man(b1-4)GlcNAc(b1-4)GlcNAc
How it was run: as §1

[26] = target: GlcNAc(b1-2)[GlcNAc(b1-4)]Man(a1-3)[GlcNAc(b1-4)][GlcNAc(b1-2)[GlcNAc(b1-6)]Man(a1-6)]Man(b1-4)GlcNAc(b1-4)GlcNAc
How it was run: as §1

[27] = target: GlcNAc(b1-2)[GlcNAc(b1-6)]Man(a1-6)[GlcNAc(b1-2)Man(a1-3)]Man(b1-4)GlcNAc(b1-4)GlcNAc
How it was run: as §1

[28] = target: GlcNAc(b1-2)[GlcNAc(b1-6)]Man(a1-6)[GlcNAc(b1-2)Man(a1-3)][GlcNAc(b1-4)]Man(b1-4)GlcNAc(b1-4)GlcNAc
How it was run: as §1

[29] = target: GlcNAc(b1-3)Gal
How it was run: as §1

[30] = target: GlcNAc(b1-3)Gal(b1-3)GalNAc
How it was run: as §1

[31] = target: GlcNAc(b1-3)Gal(b1-4)Glc
How it was run: as §1

[32] = target: GlcNAc(b1-3)Gal(b1-4)GlcNAc
How it was run: as §1

[33] = target: GlcNAc(b1-3)Gal(b1-4)GlcNAc(b1-3)Gal(b1-4)GlcNAc
How it was run: as §1

[34] = target: GlcNAc(b1-3)GalNAc
How it was run: as §1

[35] = target: GlcNAc(b1-3)Man
How it was run: as §1

[36] = target: GlcNAc(b1-3)[GlcNAc(b1-4)][GlcNAc(b1-6)]GlcNAc
How it was run: as §1

[37] = target: GlcNAc(b1-3)[GlcNAc(b1-6)]Gal(b1-4)GlcNAc
How it was run: as §1

[38] = target: GlcNAc(b1-3)[GlcNAc(b1-6)]GalNAc
How it was run: as §1

[39] = target: GlcNAc(b1-4)Gal(b1-4)GlcNAc
How it was run: as §1

[40] = target: GlcNAc(b1-4)GlcNAc
How it was run: as §1

[41] = target: GlcNAc(b1-4)GlcNAc(b1-4)GlcNAc
How it was run: as §1

[42] = target: GlcNAc(b1-4)GlcNAc(b1-4)GlcNAc(b1-4)GlcNAc(b1-4)GlcNAc
How it was run: as §1

[43] = target: GlcNAc(b1-4)GlcNAc(b1-4)GlcNAc(b1-4)GlcNAc(b1-4)GlcNAc(b1-4)GlcNAc
How it was run: as §1

[44] = target: GlcNAc(b1-4)[GlcNAc(b1-6)]GalNAc
How it was run: as §1

[45] = target: GlcNAc(b1-6)Gal(b1-4)GlcNAc
How it was run: as §1

[46] = target: GlcNAc(b1-6)GalNAc
How it was run: as §1

[47] = target: GlcNAc3Prop(b1-4)GlcNAc
How it was run: as §1

[48] = target: GlcNAc6S(b1-3)Gal(b1-4)GlcNAc
How it was run: as §1

[49] = target: Kdn(a2-3)Gal(b1-3)GalNAc
How it was run: as §1

[50] = target: Kdn(a2-3)Gal(b1-3)GlcNAc
How it was run: as §1

[51] = target: Kdn(a2-3)Gal(b1-4)Glc
How it was run: as §1

[52] = target: Kdn(a2-3)Gal(b1-4)GlcNAc
How it was run: as §1

[53] = target: Kdn(a2-3)Gal(b1-4)[Fuc(a1-3)]GlcNAc
How it was run: as §1

[54] = target: Kdn(a2-6)Gal(b1-4)GlcNAc
How it was run: as §1

[55] = target: Man(a1-2)Man(a1-2)Man(a1-3)Man
How it was run: as §1

[56] = target: Man(a1-2)Man(a1-2)Man(a1-6)[Man(a1-3)]Man
How it was run: as §1

[57] = target: Man(a1-2)Man(a1-3)Man
How it was run: as §1

[58] = target: Man(a1-2)Man(a1-3)[Man(a1-2)Man(a1-6)]Man
How it was run: as §1

[59] = target: Man(a1-2)Man(a1-3)[Man(a1-2)Man(a1-6)]Man(a1-6)[Man(a1-2)Man(a1-2)Man(a1-3)]Man
How it was run: as §1

[60] = target: Man(a1-2)Man(a1-3)[Man(a1-2)Man(a1-6)]Man(a1-6)[Man(a1-2)Man(a1-2)Man(a1-3)]Man(b1-4)GlcNAc(b1-4)GlcNAc
How it was run: as §1

B1: RetS (Pseudomonas aeruginosa), Q9HUV7 (protein)
chain: MVRLRIAIGLLVSFLLLLLGPMSPAVADDAGVSSVPLQTTATTPSANQNWRLLRDESAQLRIADVLQRKEQFRPLAKRSFIFPASPQAVWLQVQLPAQKVPSWLWIFAPRVQYLDYYLVQDGQLVRDQHTGESRPFQERPLPSRSYLFSLPVDGKPMTLYVRMTSNHPLMAWFDQIDEAGLVGLEKPAYAFGMLLGGMLLLLMYNLIRFAYSRSASSLWLAAVHAALAVCAAANLGLVAFWLPGLKFNQSLTADLGALGAAVSLLWFACSFFRGTAESRLNRLLQGEALLILAVGAIIAFTQQLWFSWLIYLLVILSSLSVPLIAAWHWYRGYQPARLIVAGMIVFNAGFMVFLPVLFGTKQLDPGWLVLGVFSFATLAGLVLSVSLTERQRLIQQLNLQQRTSEAAHTAELQTKAEFLAKISHEIRTPMNGVLGMTELLLGTPLSAKQRDYVQTIHSAGNELLTLINEILDISKLESGQIELDEVQFDLNALIEDCLDIFRVKAEQQRIELISFTQPQVPRVIGGDPTRLRQVVLSLLDNAFKQTEEGEILLVVALDDQGETPRLRIAVQDSGHPFDAKEREALLTAELHSGDFLSASKLGSHLGLIIARQLVRLMGGEFGIQSGSSQGTTLSLTLPLDPQQLENPTADLDGPLQGARLLVVDDNETCRKVLVQQCSGWGLNVSAVSSGKEALAQLRTKAHLREYFDVVLLDQDMPGMTGMQLAAKIKEDPNLNHDILLIMLTGISNAPSKIIARNAGIKRILAKPVAGYTLKATLADELAQRGVSGVTNYLQPAKEAQAPSLPSDFRILVAEDNSISTKVIRGMLNKLNLQPDTASNGQEALSAMKATQYDLVLMDCEMPVLDGFSATEQLRAWEAHEQRPHTPVVALTAHILSEHKERARLVGMDGHMAKPVELSQLRELIAYWVGERDRRRQGDALPS
glycan array binding signal (z-score) [1]: 0.146
glycan array binding signal (z-score) [2]: 0.174
glycan array binding signal (z-score) [3]: -0.095
glycan array binding signal (z-score) [4]: 0.692
glycan array binding signal (z-score) [5]: -0.394
glycan array binding signal (z-score) [6]: 1.52
glycan array binding signal (z-score) [7]: -0.696
glycan array binding signal (z-score) [8]: -0.719
glycan array binding signal (z-score) [9]: 0.305
glycan array binding signal (z-score) [10]: -0.623
glycan array binding signal (z-score) [11]: 0.688
glycan array binding signal (z-score) [12]: -0.22
glycan array binding signal (z-score) [13]: 0.737
glycan array binding signal (z-score) [14]: -0.409
glycan array binding signal (z-score) [15]: 0.236
glycan array binding signal (z-score) [16]: 6.62
glycan array binding signal (z-score) [17]: -1.06
glycan array binding signal (z-score) [18]: 4.27
glycan array binding signal (z-score) [19]: -1.48
glycan array binding signal (z-score) [20]: -0.622
glycan array binding signal (z-score) [21]: 0.152
glycan array binding signal (z-score) [22]: -0.49
glycan array binding signal (z-score) [23]: 2.21
glycan array binding signal (z-score) [24]: -0.599
glycan array binding signal (z-score) [25]: -0.278
glycan array binding signal (z-score) [26]: -0.414
glycan array binding signal (z-score) [27]: 0.394
glycan array binding signal (z-score) [28]: 0.595
glycan array binding signal (z-score) [29]: 0.006
glycan array binding signal (z-score) [30]: 0.065
glycan array binding signal (z-score) [31]: 2.75
glycan array binding signal (z-score) [32]: -0.607
glycan array binding signal (z-score) [33]: -0.992
glycan array binding signal (z-score) [34]: -0.143
glycan array binding signal (z-score) [35]: -0.263
glycan array binding signal (z-score) [36]: -0.724
glycan array binding signal (z-score) [37]: 0.412
glycan array binding signal (z-score) [38]: -0.56
glycan array binding signal (z-score) [39]: -0.862
glycan array binding signal (z-score) [40]: -0.501
glycan array binding signal (z-score) [41]: -1.57
glycan array binding signal (z-score) [42]: -0.702
glycan array binding signal (z-score) [43]: 0.22
glycan array binding signal (z-score) [44]: 1.11
glycan array binding signal (z-score) [45]: -0.028
glycan array binding signal (z-score) [46]: -0.463
glycan array binding signal (z-score) [47]: -0.222
glycan array binding signal (z-score) [48]: -0.899
glycan array binding signal (z-score) [49]: -1.13
glycan array binding signal (z-score) [50]: -0.528
glycan array binding signal (z-score) [51]: -0.793
glycan array binding signal (z-score) [52]: -1.53
glycan array binding signal (z-score) [53]: -1.35
glycan array binding signal (z-score) [54]: 0.579
glycan array binding signal (z-score) [55]: 0.185
glycan array binding signal (z-score) [56]: -0.219
glycan array binding signal (z-score) [57]: -1.17
glycan array binding signal (z-score) [58]: 1.24
glycan array binding signal (z-score) [59]: 0.352
glycan array binding signal (z-score) [60]: -0.741
